The record followed here is PubChem BioAssay AID216 (DTP/NCI, 2004).

The test system of this assay is BDF1 mice, P288 leukemia ip, survival T/C. Put plainly: NCI In Vivo Anticancer Drug Screen. Data for tumor model P288 Lymphocytic Leukemia (intraperitoneal) in B6D2F1 (BDF1) mice. Conditions: T/C endpoint: survival time, mean or median, schedule: Q01DX010 (ip), vehicle: saline, higher T/C = longer survival. As for the experimental part:
The antitumor activity of compounds was measured in mice bearing transplantable tumors. Survival or tumor size were measured and the results are expressed as the measurement made in the treated group (T) divided by the measurement made in the vehicle treated control group (C). The tumor model used in this assay is P288 Lymphocytic Leukemia (intraperitoneal) in B6D2F1 (BDF1) mice

Molecules are shown by their SMILES. The list does not hold the whole screen: its compounds were picked by chemical class. Not every dose and run of a compound is shown. T/C: endpoint of the treated group in % of that of the vehicle group. Where survival is the endpoint, this PubChem deposit counts one and a half times the control or more as active, and values a quarter to a half above the control carry no call in these data; other NCI protocols may use other cut-offs. Some T/C values are marked as having no survivor count here; that says nothing about deaths at the dose. Schedule codes are those of the source, read here as Q, the interval in days (D) or hours (H), X, the number of doses. Some doses were run more than once; their values stand side by side, smallest first.

With `CN(CCCl)CCCl`, the T/C (dose: 0.13 mg/kg/injection) was 115 [survivor count not shown] and 121 % of control [survivor count not shown]; the T/C (dose: 0.25 mg/kg/injection) is 94 [survivor count not shown] and 121 % of control [survivor count not shown]; the T/C (dose: 0.5 mg/kg/injection) is 100 [survivor count not shown] and 121 % of control [survivor count not shown].
